The other results are listed elsewhere or left out.

By UniProt entry, the sequences of proteins in these tests, tags left out.
UniProt Q0JBA9, entry or part of it: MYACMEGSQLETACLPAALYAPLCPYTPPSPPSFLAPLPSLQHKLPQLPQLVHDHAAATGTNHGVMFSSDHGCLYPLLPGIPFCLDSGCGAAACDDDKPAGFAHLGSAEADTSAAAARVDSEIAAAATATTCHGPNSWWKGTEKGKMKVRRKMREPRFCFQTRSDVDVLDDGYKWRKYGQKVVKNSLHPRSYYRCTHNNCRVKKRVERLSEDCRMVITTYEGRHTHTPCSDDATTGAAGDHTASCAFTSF

The assay has as its target OsWRKY34 (Oryza sativa, UniProt Q0JBA9 1-250). The assay can be described thus: protein-binding microarray (RPBM); PBS, 2% BSA, 51.3 ng/ul salmon testes DNA, 50 uM zinc acetate, 200 nM TF, 25 C, 1 h; high values mean tight binding. The settings on record: protein: recombinant; tags: N-terminal polyhistidine and DsRed monomer fusion (pET32a); label: CyDye5-dUTP incorporated in the synthesized complementary strand; 3' TTTTT single-stranded linker to array surface; dsDNA, one strand shown. In a few lines: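 Using Ni–NTA, transcription factors fused N-terminally to polyhistidine and DsRed were purified after expression in E. coli BL21-CodonPlus. These were incubated at 200 nM with a blocked, double-stranded custom Agilent array for 1 h at 25 °C in a buffer containing 50 µM zinc acetate, and the array was washed. The binding signal is per-feature fluorescence intensity (arbitrary units) on an Axon 4000B scanner.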
On to “CCGTTTTAAAATGTTTGACACCGTTGACTTTTTAGTACATCGGAGTCACCTAGTGCAG”, for which the binding signal is 26100 fluorescence intensity (a.u.).

Turning to “ACTGTGGTTTCTAGTGGGTTTTATTATTTTATAATTTGTACGGAGTCACCTAGTGCAG”, the binding signal is 8480 fluorescence intensity (a.u.). As to “GCCCAACGCGCTCCAACTCGCCGTCAACGACCACCTTGGTCGGAGTCACCTAGTGCAG”, the binding signal was 8510 fluorescence intensity (a.u.). Take “CGCACGGTTGGGTTGGTTTCCTCTTCTTCGCTCTTGAGAGCGGAGTCACCTAGTGCAG”: the binding signal is 9390 fluorescence intensity (a.u.).

For “ACCGCCTCCATCCATCCGCCGCGTCTCGCCGCCGGCCGCACGGAGTCACCTAGTGCAG”, the binding signal is 9000 fluorescence intensity (a.u.). For “AATCCGCGCTAATCACCCACTAATACTCTTGTTTAATCACCGGAGTCACCTAGTGCAG” the value was 8870 fluorescence intensity (a.u.); for “GTGGGTGTTTTTGATTGGAGAATCTGAGCGGCGAGTAGTGCGGAGTCACCTAGTGCAG”, 8180 fluorescence intensity (a.u.). As for “CTGCTCTTTTCATTTACAAATCATGTCCTCATGTTGCAGTCGGAGTCACCTAGTGCAG”, the binding signal is 8360 fluorescence intensity (a.u.).

“TCTTATTTGACCATGATGTTTGTAAGGTGCATGTTCTGGTCGGAGTCACCTAGTGCAG”: the binding signal is 8540 fluorescence intensity (a.u.). For “AAACTCCTTGCAAACTGATTATTTTACACTGCATCATACTCGGAGTCACCTAGTGCAG”, the binding signal was 9140 fluorescence intensity (a.u.). For the sequence “CCATCCTAGTTGTGACAAACATTACACTTTTCTCATGTAACGGAGTCACCTAGTGCAG”, the binding signal is 8050 fluorescence intensity (a.u.). With “TCTCCCTTTGACTGGACCATGGACTGCAACAAGCAACAACCGGAGTCACCTAGTGCAG”, the binding signal was 8260 fluorescence intensity (a.u.). Turning to “CCTTTGCCTCGCCATCCTGCTGCTCGTGCCCCTCCGCCCACGGAGTCACCTAGTGCAG”, the binding signal is 10900 fluorescence intensity (a.u.). Regarding “CTTTCTCCGTCCGTCCATTGTCACTTGCATCATCGTCGTACGGAGTCACCTAGTGCAG”, the binding signal was 13900 fluorescence intensity (a.u.). Turning to “CAACGCCAAGACGAGTGGCGGCTGAACAGGGGAGGGGCGGCGGAGTCACCTAGTGCAG”, the binding signal was 9970 fluorescence intensity (a.u.). Consider “CACACAGCATCGTTTGGATTAATCACCGAACCGATCGACCCGGAGTCACCTAGTGCAG”, for which the binding signal is 8400 fluorescence intensity (a.u.). As for “ACAGTGACTCTTTTGTATATTATTCTGAAGTCCTCTGACTCGGAGTCACCTAGTGCAG”, the binding signal was 9230 fluorescence intensity (a.u.). For “TCTTATCACATTATCACCATTCGATTGTCTTTATATCATTCGGAGTCACCTAGTGCAG”, the binding signal was 9960 fluorescence intensity (a.u.). As for “CAAATTATGAGCCTGTTCACTTTGATGCTCTTTTCAACCACGGAGTCACCTAGTGCAG”, the figure is 8320 fluorescence intensity (a.u.). In the case of “TGCACTACTGTTTCTTTTTTCCTTCGATTATTGGCACGGACGGAGTCACCTAGTGCAG”, the binding signal is 13900 fluorescence intensity (a.u.). Consider “ACCCACACACCGACAGCACCAACACACAGGTCCAGAAGAACGGAGTCACCTAGTGCAG”, for which the binding signal is 10400 fluorescence intensity (a.u.). For “TCACGCGTCTTCCATTCTTGAACACCACCACCCCGAGCTACGGAGTCACCTAGTGCAG” the value was 8310 fluorescence intensity (a.u.); for “TGTCTCTATGAACGTCCTTGTATTTTGCTCATGATTTAATCGGAGTCACCTAGTGCAG”, 10300 fluorescence intensity (a.u.). With “TCCCGTACCGCTCCATCCGCGACCTCTCCCGGCGGTACGGCGGAGTCACCTAGTGCAG”, the binding signal is 8920 fluorescence intensity (a.u.). “CGGCTTCATCTCATCGAGCTCGACCGACCGACGCGCACATCGGAGTCACCTAGTGCAG”: the binding signal is 9070 fluorescence intensity (a.u.). For “AGTAGAGTGCTGGTTGTCCTACTCCTCTGCATGCTTTTTTCGGAGTCACCTAGTGCAG”, the binding signal was 12400 fluorescence intensity (a.u.). For “AAAACTGCCGTACGTCACATCCTATTTCCGTTTAAATTTCCGGAGTCACCTAGTGCAG” the value was 11000 fluorescence intensity (a.u.); for “TCCCCTTGTACAGCTGTAATACTCCACTTCCACCTAGCGCCGGAGTCACCTAGTGCAG”, 8590 fluorescence intensity (a.u.).

Consider “AAAACAAGTACGGTACTCTCAACTCGCTAGTCTCAACTTACGGAGTCACCTAGTGCAG”, for which the binding signal is 8580 fluorescence intensity (a.u.). Consider “TTTTAAAACTGCTGGGATTTTGCTTTCTGTTTCTTCAATGCGGAGTCACCTAGTGCAG”, for which the binding signal was 10900 fluorescence intensity (a.u.). Regarding “GATTCTCGTCCCAGATCCGCCACTCCCTTCCCCAATTCGCCGGAGTCACCTAGTGCAG”, the binding signal was 8210 fluorescence intensity (a.u.). Turning to “AGGTGACTCACTCACTTTTCCGGCTTCTTCTCTTCTTTCCCGGAGTCACCTAGTGCAG”, the binding signal was 10200 fluorescence intensity (a.u.). As for “GCTTGTCCACTTCGTTAATTTTTGTTAATTTAGTGCTCGACGGAGTCACCTAGTGCAG”, the figure is 9690 fluorescence intensity (a.u.). For “ACCGCGCCATCAACTCCTCCTTGAGGTCCTCTTCAAAACCCGGAGTCACCTAGTGCAG” the value was 10100 fluorescence intensity (a.u.); for “CCAGGTGGTTCCTTGCTCTGCGTCTTCCTTCAAACCGTATCGGAGTCACCTAGTGCAG”, 9260 fluorescence intensity (a.u.); for “TCATGATGAATCGGGGTGGTGGAGGTTTGCTTGTTATGGTCGGAGTCACCTAGTGCAG”, 11000 fluorescence intensity (a.u.). “TACCCCGCGAGACAATGACACATCATCTCACGAGAAGTTACGGAGTCACCTAGTGCAG”: the binding signal is 8400 fluorescence intensity (a.u.). Turning to “TCCTTTATTTATGTGGTCCTCATGGTCAGTCATGTGCACACGGAGTCACCTAGTGCAG”, the binding signal is 8270 fluorescence intensity (a.u.). For “ACCATCACATGTCACCACCACTCATGGTCTCATCTTTTCGCGGAGTCACCTAGTGCAG” the value was 8230 fluorescence intensity (a.u.); for “ACTTGGTTTGGTGGAGTTTGTGTGTTTATTGCTTTCCTTCCGGAGTCACCTAGTGCAG”, 11400 fluorescence intensity (a.u.); for “TTGCCAACGCTACAATATATAGGCTGTGTTTAGTTCCACACGGAGTCACCTAGTGCAG”, 8040 fluorescence intensity (a.u.). For the sequence “CGTTAGCTAAGATAGTACTCATATTATGTTTCAGAATATACGGAGTCACCTAGTGCAG”, the binding signal was 8130 fluorescence intensity (a.u.).
